Test results taken from patent US20250381255A1.
Results are given in words; binding and its absence hold for the method and conditions named. Some results given as binding are weak or reduced against the parent protein; the word gives no strength.

Protein sequences, listed by entry. Tags and fused reporters are not part of them. Lines headed by an entry give the natural chain unless they say otherwise; changes in a name come on top.
UniProt P07306: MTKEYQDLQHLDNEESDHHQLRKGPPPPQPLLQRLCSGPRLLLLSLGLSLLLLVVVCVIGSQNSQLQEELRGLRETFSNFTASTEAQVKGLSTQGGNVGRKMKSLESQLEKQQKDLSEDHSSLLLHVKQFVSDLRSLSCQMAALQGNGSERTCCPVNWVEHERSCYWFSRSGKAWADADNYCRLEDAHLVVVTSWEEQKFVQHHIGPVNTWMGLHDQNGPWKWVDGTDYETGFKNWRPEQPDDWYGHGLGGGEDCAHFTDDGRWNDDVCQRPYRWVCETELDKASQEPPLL

Target: human asialoglycoprotein receptor 1 (ASGR1) extracellular domain (human) (UniProt P07306)
Assay: pH and Ca2+ dependency by SPR (Biacore), BLI (Octet) and cell based assays

B1: mAb-60881 (antibody, V domains shown)
VH: QVQLQESGPGLVKPSETLSLTCAVSGYSISSGYYWGWIRQPPGKGLEWIGSIYHSGSTYYNPSLKSRVTISVDTSKNQFSLKLSSVTAADTAVYYCAREAGYPERGYGMDVWGQGTTVTVSS
VL: EIVMTQSPATLSVSPGERATLSCRASQSVSSNLAWYQQKPGQAPRLLIYGASTRATGIPARFSGSGSGTEFTLTISSLQSEDFAVYYCQQYFHHPFTFGGGTKVEIK
With B1 the binding was “binds”.
